Source: paper PMC8110579

Amino acid sequences for entries named in this document (tags omitted).
UniProt Q8TDG2: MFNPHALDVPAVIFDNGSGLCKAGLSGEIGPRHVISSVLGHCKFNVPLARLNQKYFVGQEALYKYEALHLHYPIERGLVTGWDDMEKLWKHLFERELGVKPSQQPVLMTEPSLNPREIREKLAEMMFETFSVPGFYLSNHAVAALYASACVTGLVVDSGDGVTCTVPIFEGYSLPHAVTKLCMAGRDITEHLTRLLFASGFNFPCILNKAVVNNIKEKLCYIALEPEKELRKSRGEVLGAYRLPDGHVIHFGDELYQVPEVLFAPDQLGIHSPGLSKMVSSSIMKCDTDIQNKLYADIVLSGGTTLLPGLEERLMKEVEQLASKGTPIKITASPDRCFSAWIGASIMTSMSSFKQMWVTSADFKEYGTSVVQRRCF
UniProt P11142: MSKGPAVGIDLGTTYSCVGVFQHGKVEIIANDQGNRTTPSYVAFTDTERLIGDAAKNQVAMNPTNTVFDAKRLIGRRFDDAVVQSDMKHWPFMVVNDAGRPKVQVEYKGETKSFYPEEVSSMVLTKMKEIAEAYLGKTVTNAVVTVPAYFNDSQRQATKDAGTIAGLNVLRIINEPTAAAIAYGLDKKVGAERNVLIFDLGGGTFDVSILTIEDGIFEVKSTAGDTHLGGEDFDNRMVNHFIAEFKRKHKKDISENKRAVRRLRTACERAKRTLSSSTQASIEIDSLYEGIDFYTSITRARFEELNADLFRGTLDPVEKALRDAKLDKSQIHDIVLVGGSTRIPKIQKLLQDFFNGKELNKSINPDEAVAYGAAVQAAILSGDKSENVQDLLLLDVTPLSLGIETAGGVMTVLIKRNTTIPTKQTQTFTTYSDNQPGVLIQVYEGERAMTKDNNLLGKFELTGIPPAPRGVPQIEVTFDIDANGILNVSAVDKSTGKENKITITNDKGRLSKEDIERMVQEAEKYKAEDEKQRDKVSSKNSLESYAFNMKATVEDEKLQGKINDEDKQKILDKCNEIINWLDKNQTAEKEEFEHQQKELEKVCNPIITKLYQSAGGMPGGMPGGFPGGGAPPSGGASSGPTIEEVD
UniProt P61026: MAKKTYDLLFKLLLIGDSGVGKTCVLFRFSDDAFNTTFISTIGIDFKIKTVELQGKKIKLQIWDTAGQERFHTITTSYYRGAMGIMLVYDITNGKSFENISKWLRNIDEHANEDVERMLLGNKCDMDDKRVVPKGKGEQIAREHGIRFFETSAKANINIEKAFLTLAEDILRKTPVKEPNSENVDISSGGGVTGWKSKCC
UniProt P20340: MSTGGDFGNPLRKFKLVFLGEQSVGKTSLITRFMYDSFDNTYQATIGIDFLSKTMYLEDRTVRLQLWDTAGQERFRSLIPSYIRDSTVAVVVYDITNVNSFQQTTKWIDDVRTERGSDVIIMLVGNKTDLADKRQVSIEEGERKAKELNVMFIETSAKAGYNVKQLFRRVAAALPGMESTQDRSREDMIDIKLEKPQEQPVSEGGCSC
UniProt O95816: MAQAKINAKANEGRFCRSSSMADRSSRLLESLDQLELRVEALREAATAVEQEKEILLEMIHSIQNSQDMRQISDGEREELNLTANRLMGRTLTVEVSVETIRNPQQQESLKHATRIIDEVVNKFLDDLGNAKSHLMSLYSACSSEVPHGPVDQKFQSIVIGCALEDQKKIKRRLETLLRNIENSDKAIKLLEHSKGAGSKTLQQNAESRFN
UniProt P61006: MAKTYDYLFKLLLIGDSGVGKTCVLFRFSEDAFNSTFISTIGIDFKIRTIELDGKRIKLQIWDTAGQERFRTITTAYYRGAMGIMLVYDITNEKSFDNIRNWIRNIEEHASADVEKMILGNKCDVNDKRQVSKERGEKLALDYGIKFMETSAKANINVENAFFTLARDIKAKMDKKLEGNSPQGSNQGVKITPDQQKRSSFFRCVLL
UniProt P21333: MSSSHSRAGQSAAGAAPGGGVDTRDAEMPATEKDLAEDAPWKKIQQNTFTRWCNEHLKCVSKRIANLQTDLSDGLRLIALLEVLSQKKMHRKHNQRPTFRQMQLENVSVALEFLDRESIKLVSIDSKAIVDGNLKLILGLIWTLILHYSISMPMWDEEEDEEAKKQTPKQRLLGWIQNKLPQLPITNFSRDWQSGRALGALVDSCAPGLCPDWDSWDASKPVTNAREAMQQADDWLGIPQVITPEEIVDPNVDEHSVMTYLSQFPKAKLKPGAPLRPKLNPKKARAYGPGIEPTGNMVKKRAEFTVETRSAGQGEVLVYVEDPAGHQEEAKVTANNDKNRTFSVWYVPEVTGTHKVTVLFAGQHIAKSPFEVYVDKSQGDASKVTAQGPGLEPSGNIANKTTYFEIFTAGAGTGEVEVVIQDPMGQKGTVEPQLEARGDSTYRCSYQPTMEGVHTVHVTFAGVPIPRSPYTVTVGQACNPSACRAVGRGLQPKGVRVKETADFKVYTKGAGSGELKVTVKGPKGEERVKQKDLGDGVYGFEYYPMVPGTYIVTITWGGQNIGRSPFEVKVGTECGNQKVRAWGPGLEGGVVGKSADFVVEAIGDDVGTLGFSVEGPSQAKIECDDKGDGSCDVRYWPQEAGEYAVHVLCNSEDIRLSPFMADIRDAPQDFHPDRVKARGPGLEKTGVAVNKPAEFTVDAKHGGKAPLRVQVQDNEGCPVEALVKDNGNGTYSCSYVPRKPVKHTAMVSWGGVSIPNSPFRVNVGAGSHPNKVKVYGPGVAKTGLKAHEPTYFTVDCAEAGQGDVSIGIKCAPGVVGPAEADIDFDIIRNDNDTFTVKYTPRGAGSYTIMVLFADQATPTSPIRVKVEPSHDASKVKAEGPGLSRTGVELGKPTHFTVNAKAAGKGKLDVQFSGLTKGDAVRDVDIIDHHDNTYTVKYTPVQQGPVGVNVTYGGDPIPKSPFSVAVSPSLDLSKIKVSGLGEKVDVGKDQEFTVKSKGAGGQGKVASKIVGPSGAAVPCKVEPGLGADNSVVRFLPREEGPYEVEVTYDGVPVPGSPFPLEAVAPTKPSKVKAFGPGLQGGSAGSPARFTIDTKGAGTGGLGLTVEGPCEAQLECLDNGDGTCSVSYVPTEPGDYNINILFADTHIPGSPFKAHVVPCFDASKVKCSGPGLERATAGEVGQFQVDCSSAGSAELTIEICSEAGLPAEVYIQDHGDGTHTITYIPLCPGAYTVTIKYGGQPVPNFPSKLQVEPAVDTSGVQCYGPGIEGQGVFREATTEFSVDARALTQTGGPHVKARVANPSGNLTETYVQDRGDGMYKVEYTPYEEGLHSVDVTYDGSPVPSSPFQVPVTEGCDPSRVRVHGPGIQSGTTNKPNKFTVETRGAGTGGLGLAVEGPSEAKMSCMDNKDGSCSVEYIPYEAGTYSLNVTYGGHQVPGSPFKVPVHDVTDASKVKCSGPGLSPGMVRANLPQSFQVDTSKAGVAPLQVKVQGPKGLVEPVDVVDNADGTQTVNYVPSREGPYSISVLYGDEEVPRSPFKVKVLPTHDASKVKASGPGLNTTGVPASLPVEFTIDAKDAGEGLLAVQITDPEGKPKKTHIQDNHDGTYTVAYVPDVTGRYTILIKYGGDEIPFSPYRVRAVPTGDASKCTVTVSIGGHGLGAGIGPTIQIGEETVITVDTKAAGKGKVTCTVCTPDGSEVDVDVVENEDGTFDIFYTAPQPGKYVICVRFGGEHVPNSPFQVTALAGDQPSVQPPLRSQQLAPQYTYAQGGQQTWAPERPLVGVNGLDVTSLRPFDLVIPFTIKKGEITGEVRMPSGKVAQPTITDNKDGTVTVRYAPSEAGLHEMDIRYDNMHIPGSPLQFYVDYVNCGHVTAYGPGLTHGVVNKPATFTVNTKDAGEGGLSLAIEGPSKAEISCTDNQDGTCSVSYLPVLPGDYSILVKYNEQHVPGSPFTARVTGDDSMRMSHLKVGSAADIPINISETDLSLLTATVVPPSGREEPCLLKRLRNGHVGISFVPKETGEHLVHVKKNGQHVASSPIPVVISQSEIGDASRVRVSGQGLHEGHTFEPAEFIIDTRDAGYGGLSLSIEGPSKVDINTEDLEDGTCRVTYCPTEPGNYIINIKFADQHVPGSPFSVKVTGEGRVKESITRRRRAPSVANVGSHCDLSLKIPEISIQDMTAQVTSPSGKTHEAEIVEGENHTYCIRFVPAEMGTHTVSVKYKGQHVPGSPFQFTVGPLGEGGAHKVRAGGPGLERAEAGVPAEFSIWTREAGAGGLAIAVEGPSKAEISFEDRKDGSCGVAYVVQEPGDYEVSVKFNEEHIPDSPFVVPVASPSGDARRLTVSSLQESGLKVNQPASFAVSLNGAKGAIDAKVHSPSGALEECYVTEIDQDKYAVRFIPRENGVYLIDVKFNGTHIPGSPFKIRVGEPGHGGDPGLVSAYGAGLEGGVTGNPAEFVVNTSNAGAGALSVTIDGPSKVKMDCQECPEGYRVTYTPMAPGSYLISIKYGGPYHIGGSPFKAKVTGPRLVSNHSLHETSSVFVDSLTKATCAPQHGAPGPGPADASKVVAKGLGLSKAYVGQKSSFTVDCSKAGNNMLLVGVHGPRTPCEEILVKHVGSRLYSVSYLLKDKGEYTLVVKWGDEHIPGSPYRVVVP
UniProt P46379: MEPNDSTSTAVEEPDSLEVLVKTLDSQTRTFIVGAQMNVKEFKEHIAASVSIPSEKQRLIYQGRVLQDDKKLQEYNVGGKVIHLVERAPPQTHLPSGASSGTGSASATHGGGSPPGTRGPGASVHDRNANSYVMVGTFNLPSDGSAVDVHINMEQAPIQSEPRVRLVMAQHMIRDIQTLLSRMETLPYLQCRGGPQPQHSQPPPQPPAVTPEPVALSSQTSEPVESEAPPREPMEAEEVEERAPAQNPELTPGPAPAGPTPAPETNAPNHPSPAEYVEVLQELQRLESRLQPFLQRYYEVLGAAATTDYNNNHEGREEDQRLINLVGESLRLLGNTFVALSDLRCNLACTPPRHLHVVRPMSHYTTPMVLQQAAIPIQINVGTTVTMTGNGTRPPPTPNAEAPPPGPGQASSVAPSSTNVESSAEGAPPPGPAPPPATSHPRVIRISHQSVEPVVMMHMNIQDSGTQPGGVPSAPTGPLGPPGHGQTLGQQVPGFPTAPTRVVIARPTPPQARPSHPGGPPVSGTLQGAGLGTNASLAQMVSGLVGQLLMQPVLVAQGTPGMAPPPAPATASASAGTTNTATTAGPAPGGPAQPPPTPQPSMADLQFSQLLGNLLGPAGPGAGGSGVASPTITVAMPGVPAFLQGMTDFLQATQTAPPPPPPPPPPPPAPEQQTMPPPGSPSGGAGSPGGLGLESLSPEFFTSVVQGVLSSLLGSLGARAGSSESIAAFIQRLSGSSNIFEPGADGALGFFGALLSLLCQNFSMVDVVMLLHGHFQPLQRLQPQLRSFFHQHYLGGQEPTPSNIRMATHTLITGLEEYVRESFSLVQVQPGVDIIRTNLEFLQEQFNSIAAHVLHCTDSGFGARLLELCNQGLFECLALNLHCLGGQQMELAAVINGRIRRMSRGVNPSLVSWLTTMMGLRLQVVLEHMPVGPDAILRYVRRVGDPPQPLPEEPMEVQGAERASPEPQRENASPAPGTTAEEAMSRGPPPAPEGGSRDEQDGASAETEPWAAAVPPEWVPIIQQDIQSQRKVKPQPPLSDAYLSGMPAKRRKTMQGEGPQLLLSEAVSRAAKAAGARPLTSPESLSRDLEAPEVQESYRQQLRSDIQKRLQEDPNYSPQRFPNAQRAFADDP
UniProt Q9Y265: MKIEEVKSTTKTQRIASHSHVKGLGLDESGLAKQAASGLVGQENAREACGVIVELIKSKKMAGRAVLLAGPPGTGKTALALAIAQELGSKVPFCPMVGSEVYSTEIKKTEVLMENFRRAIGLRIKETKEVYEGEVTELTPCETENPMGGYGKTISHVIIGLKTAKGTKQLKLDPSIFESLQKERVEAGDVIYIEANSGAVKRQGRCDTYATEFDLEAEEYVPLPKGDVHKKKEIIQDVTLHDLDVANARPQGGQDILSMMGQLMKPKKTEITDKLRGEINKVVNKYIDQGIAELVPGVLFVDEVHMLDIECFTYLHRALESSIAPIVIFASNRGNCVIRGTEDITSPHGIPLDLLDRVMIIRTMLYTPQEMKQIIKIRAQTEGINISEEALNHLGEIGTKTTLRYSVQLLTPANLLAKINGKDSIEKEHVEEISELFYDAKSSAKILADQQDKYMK
UniProt Q9NP72: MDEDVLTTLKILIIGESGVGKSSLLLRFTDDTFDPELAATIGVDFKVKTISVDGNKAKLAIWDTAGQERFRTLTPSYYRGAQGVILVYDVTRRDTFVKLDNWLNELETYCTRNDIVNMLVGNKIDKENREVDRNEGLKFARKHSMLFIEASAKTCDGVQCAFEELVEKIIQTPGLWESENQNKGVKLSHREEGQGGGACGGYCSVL

Assays:
[1] = target: Actin-Related Protein-Testis1 (ARP-T1), wild type, tagged with DDK (human) (UniProt Q8TDG2); experiment: affinity purification with mass spectrometry; ARP-T1-DDK from transduced HeLa cells held on anti-FLAG M2 affinity gel; FLAG lysis buffer (50 mM Tris/HCl pH 7.5, 150 mM NaCl, 1 mM EDTA, 1% Triton X-100); precipitate separated on a gel, digested with trypsin, Orbitrap mass spectrometry; empty vector as control
[2] = target: Actin-Related Protein-Testis1 (ARP-T1), wild type, tagged with DDK (human) (UniProt Q8TDG2); experiment: affinity purification with mass spectrometry; ARP-T1-DDK from transduced serum-starved (differentiated) hTERT-RPE1 cells held on anti-FLAG M2 affinity gel; FLAG lysis buffer; precipitate separated on a gel, digested with trypsin, Orbitrap mass spectrometry; empty vector as control
[3] = target: Actin-Related Protein-Testis1 (ARP-T1), wild type, tagged with DDK (human) (UniProt Q8TDG2); experiment: affinity purification with mass spectrometry; ARP-T1-DDK from transduced differentiated NHEK held on anti-FLAG M2 affinity gel; FLAG lysis buffer; precipitate separated on a gel, digested with trypsin, Orbitrap mass spectrometry; empty vector as control

| Molecule | binding [1] | binding [2] | binding [3] |
| --- | --- | --- | --- |
| Heat shock cognate 71 kDa protein (from UniProt P11142 1-646) | binds | – | – |
| Rab10 (from UniProt P61026 1-200) | – | binds | – |
| Exportin 1 (from UniProt O14980 1-1071) | binds | – | – |
| Rab6A (from UniProt P20340 1-208) | – | binds | – |
| Cortactin (from UniProt Q14247 1-550) | – | binds | – |
| BAG family molecular chaperone regulator 2 (BAG 2) (from UniProt O95816 1-211) | binds | binds | binds |
| Ras-related protein Rab-8A (from UniProt P61006 1-207) | binds | – | – |
| Filamin-A (from UniProt P21333 1-2647) | binds | – | – |
| T-complex protein 1 subunit theta (TCP1 theta) (from UniProt P50990 1-548) | binds | binds | – |
| BAG family molecular chaperone regulator 6 (BAG 6) (from UniProt P46379 1-1132) | – | – | binds |
| RuvB-like 1 (from UniProt Q9Y265 1-456) | – | binds | – |
| Rab18 (from UniProt Q9NP72 1-206) | – | – | binds |
| T-complex protein 1 subunit beta (TCP1 beta) (protein, UniProt P78371 1-535) MASLSLAPVNIFKAGADEERAETARLTSFIGAIAIGDLVKSTLGPKGMDKILLSSGRDASLMVTNDGATILKNIGVDNPAAKVLVDMSRVQDDEVGDGTTSVTVLAAELLREAESLIAKKIHPQTIIAGWREATKAAREALLSSAVDHGSDEVKFRQDLMNIAGTTLSSKLLTHHKDHFTKLAVEAVLRLKGSGNLEAIHIIKKLGGSLADSYLDEGFLLDKKIGVNQPKRIENAKILIANTGMDTDKIKIFGSRVRVDSTAKVAEIEHAEKEKMKEKVERILKHGINCFINRQLIYNYPEQLFGAAGVMAIEHADFAGVERLALVTGGEIASTFDHPELVKLGSCKLIEEVMIGEDKLIHFSGVALGEACTIVLRGATQQILDEAERSLHDALCVLAQTVKDSRTVYGGGCSEMLMAHAVTQLANRTPGKEAVAMESYAKALRMLPTIIADNAGYDSADLVAQLRAAHSEGNTTAGLDMREGTIGDMAILGITESFQVKRQVLLSAAEAAEVILRVDNIIKAAPRKRVPDHHPC | – | – | binds |
| Erlin-2 (protein, UniProt O94905 1-339) MAQLGAVVAVASSFFCASLFSAVHKIEEGHIGVYYRGGALLTSTSGPGFHLMLPFITSYKSVQTTLQTDEVKNVPCGTSGGVMIYFDRIEVVNFLVPNAVYDIVKNYTADYDKALIFNKIHHELNQFCSVHTLQEVYIELFDQIDENLKLALQQDLTSMAPGLVIQAVRVTKPNIPEAIRRNYELMESEKTKLLIAAQKQKVVEKEAETERKKALIEAEKVAQVAEITYGQKVMEKETEKKISEIEDAAFLAREKAKADAECYTAMKIAEANKLKLTPEYLQLMKYKAIASNSKIYFGKDIPNMFMDSAGSVSKQFEGLADKLSFGLEDEPLETATKEN | binds | – | binds |
| EH domain containing protein 4 (EHD4) (protein, UniProt Q9H223 1-541) MFSWMGRQAGGRERAGGADAVQTVTGGLRSLYLRKVLPLEEAYRFHEFHSPALEDADFENKPMILLVGQYSTGKTTFIRYLLEQDFPGMRIGPEPTTDSFIAVMYGETEGSTPGNALVVDPKKPFRKLSRFGNAFLNRFMCSQLPNQVLKSISVIDSPGILSGEKQRISRGYDFCQVLQWFAERVDRIILLFDAHKLDISDEFSEAIKAFRGQDDKIRVVLNKADQVDTQQLMRVYGALMWSLGKVINTPEVLRVYIGSFWAQPLQNTDNRRLFEAEAQDLFRDIQSLPQKAAVRKLNDLIKRARLAKVHAYIISYLKKEMPSVFGKENKKRELISRLPEIYIQLQREYQISAGDFPEVKAMQEQLENYDFTKFHSLKPKLIEAVDNMLSNKISPLMNLISQEETSTPTQLVQGGAFDGTTEGPFNQGYGEGAKEGADEEEWVVAKDKPVYDELFYTLSPINGKISGVNAKKEMVTSKLPNSVLGKIWKLADCDCDGMLDEEEFALAKHLIKIKLDGYELPSSLPPHLVPPSHRKSLPKAD | – | binds | – |
| Septin-2 (protein, UniProt Q15019 1-361) MSKQQPTQFINPETPGYVGFANLPNQVHRKSVKKGFEFTLMVVGESGLGKSTLINSLFLTDLYPERVIPGAAEKIERTVQIEASTVEIEERGVKLRLTVVDTPGYGDAINCRDCFKTIISYIDEQFERYLHDESGLNRRHIIDNRVHCCFYFISPFGHGLKPLDVAFMKAIHNKVNIVPVIAKADTLTLKERERLKKRILDEIEEHNIKIYHLPDAESDEDEDFKEQTRLLKASIPFSVVGSNQLIEAKGKKVRGRLYPWGVVEVENPEHNDFLKLRTMLITHMQDLQEVTQDLHYENFRSERLKRGGRKVENEDMNKDQILLEKEAELRRMQEMIARMQAQMQMQMQGGDGDGGALGHHV | – | binds | – |
| Septin-9 (protein, UniProt Q9UHD8 1-586) MKKSYSGGTRTSSGRLRRLGDSSGPALKRSFEVEEVETPNSTPPRRVQTPLLRATVASSTQKFQDLGVKNSEPSARHVDSLSQRSPKASLRRVELSGPKAAEPVSRRTELSIDISSKQVENAGAIGPSRFGLKRAEVLGHKTPEPAPRRTEITIVKPQESAHRRMEPPASKVPEVPTAPATDAAPKRVEIQMPKPAEAPTAPSPAQTLENSEPAPVSQLQSRLEPKPQPPVAEATPRSQEATEAAPSCVGDMADTPRDAGLKQAPASRNEKAPVDFGYVGIDSILEQMRRKAMKQGFEFNIMVVGQSGLGKSTLINTLFKSKISRKSVQPTSEERIPKTIEIKSITHDIEEKGVRMKLTVIDTPGFGDHINNENCWQPIMKFINDQYEKYLQEEVNINRKKRIPDTRVHCCLYFIPATGHSLRPLDIEFMKRLSKVVNIVPVIAKADTLTLEERVHFKQRITADLLSNGIDVYPQKEFDEDSEDRLVNEKFREMIPFAVVGSDHEYQVNGKRILGRKTKWGTIEVENTTHCEFAYLRDLLIRTHMQNIKDITSSIHFEAYRVKRLNEGSSAMANGMEEKEPEAPEM | – | binds | – |
| EH domain-containing protein 1 (EHD1) (protein, UniProt Q9H4M9 1-534) MFSWVSKDARRKKEPELFQTVAEGLRQLYAQKLLPLEEHYRFHEFHSPALEDADFDNKPMVLLVGQYSTGKTTFIRHLIEQDFPGMRIGPEPTTDSFIAVMHGPTEGVVPGNALVVDPRRPFRKLNAFGNAFLNRFMCAQLPNPVLDSISIIDTPGILSGEKQRISRGYDFAAVLEWFAERVDRIILLFDAHKLDISDEFSEVIKALKNHEDKIRVVLNKADQIETQQLMRVYGALMWSLGKIINTPEVVRVYIGSFWSHPLLIPDNRKLFEAEEQDLFKDIQSLPRNAALRKLNDLIKRARLAKVHAYIISSLKKEMPNVFGKESKKKELVNNLGEIYQKIEREHQISPGDFPSLRKMQELLQTQDFSKFQALKPKLLDTVDDMLANDIARLMVMVRQEESLMPSQVVKGGAFDGTMNGPFGHGYGEGAGEGIDDVEWVVGKDKPTYDEIFYTLSPVNGKITGANAKKEMVKSKLPNTVLGKIWKLADVDKDGLLDDEEFALANHLIKVKLEGHELPADLPPHLVPPSKRRHE | – | binds | – |

These are yes or no findings as the source states them, for the method shown. In cells and extracts the contact can be indirect. These calls come from enrichment with a bait or labelling near it, and not all partners need be listed.
